Among the data in article doi:10.1101/2025.11.23.690026 are binding values, retold here.

By UniProt entry, the sequences of proteins in these tests, tags left out. Residues count along the entry.
UniProt P29469, whole entry: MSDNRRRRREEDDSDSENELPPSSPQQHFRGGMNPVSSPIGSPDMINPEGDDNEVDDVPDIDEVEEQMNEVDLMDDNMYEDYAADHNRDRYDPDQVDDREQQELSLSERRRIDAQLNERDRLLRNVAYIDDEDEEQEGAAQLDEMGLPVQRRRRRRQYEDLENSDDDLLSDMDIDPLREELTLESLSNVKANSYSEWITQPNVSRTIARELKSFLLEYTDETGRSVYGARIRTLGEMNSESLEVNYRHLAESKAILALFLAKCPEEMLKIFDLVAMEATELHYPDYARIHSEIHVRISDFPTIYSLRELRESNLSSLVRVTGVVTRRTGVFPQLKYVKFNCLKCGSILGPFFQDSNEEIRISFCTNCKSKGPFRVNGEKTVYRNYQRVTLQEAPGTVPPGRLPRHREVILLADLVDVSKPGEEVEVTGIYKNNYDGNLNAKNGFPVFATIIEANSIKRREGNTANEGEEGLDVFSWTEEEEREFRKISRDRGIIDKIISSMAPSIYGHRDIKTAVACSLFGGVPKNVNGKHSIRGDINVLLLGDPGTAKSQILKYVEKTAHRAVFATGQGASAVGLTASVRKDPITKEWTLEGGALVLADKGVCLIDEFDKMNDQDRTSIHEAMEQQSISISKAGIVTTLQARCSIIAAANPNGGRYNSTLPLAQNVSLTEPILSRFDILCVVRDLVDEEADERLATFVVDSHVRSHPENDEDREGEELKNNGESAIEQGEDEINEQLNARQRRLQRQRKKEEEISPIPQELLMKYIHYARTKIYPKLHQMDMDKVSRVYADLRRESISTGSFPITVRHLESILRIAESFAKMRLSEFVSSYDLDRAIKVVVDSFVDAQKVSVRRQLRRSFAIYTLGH
UniProt P29469, 791-867: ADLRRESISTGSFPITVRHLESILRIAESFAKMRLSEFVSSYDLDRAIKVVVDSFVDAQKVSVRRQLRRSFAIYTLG
UniProt P22082, whole entry: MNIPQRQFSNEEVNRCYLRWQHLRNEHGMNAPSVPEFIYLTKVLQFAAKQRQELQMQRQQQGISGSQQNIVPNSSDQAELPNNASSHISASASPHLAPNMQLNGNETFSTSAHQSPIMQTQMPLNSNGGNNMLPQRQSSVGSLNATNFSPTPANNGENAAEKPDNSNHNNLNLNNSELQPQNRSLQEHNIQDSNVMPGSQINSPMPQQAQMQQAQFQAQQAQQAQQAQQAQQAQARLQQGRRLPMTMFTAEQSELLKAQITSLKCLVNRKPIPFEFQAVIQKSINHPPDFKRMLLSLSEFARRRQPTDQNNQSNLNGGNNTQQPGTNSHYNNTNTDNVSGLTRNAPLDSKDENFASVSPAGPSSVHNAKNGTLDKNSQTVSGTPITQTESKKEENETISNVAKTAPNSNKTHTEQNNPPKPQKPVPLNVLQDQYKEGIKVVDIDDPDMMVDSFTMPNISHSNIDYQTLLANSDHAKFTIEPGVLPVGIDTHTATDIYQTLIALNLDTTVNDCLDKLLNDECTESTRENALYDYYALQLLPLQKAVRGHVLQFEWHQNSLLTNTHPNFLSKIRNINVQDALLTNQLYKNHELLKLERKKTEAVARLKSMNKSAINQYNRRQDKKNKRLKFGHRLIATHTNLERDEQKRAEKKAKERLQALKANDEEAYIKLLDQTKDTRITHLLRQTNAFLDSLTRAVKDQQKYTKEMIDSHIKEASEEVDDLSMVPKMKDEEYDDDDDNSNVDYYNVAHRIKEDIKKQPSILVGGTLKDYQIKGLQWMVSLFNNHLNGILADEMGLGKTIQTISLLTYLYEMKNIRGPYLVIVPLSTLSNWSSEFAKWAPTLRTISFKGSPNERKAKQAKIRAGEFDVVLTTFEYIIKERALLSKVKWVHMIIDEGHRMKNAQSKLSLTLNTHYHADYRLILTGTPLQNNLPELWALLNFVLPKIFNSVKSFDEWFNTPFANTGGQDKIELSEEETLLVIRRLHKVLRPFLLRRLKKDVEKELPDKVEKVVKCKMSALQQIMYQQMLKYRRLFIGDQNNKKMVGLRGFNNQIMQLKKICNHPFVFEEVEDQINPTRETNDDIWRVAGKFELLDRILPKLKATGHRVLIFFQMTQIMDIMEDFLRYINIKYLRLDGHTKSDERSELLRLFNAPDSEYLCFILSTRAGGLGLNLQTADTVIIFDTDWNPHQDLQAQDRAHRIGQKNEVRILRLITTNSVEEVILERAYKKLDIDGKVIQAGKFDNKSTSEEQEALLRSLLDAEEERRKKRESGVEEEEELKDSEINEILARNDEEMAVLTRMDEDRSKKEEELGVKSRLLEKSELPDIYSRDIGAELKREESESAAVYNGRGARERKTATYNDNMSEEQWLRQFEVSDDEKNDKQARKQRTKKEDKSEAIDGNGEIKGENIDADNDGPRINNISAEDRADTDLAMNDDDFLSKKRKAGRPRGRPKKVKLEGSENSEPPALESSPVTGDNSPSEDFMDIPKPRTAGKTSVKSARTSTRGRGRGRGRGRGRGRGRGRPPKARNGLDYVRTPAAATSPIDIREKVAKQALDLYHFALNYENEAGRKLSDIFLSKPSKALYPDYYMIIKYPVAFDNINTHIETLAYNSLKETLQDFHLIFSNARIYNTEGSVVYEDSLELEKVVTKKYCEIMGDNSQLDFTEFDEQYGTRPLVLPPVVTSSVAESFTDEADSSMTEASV

Read-outs that look alike come from different tables or passages of the source. These are yes or no findings as the source states them, for the method shown. For some assays here: In cells and extracts the contact can be indirect. Some binding calls cover weakened binding; strength is not graded here. For some assays here: Sequences can lack the tags named with a protein.

Test [1] concerns the target T1, Spp1 (S. cerevisiae) (UniProt Q03012).
T1 sequence: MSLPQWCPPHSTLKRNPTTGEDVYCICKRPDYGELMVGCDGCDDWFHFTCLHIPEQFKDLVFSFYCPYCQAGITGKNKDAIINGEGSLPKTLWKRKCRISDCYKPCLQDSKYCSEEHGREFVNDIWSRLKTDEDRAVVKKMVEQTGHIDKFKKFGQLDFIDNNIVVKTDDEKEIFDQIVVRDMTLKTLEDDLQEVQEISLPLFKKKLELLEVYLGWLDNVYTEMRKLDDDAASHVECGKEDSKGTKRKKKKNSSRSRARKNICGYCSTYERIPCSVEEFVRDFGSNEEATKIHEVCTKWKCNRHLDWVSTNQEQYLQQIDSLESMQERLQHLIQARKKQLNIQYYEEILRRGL
The test can be described thus: two-hybrid.

In the next test the target is T2, GST-Spp1 (S. cerevisiae) (UniProt Q03012).
T2 sequence: T1 sequence
Description: pull-down.

The next test deals with GST-Mcm2 (S. cerevisiae) (UniProt P29469). Description: pull-down.
Another test addresses T3, GST-Shg1 (S. cerevisiae) (UniProt P38337).
T3 sequence: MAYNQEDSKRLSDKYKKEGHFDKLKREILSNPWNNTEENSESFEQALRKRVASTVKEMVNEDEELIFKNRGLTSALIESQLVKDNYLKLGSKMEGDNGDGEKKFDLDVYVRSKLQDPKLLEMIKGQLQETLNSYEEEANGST
The test can be described thus: pull-down.

Another test concerns the target T4, GST-Sdc1 (S. cerevisiae) (UniProt Q03323).
T4 sequence: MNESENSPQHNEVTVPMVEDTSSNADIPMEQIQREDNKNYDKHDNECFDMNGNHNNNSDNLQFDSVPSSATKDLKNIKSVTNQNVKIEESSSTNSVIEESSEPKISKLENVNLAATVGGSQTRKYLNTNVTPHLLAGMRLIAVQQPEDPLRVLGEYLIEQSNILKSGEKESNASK
Description: pull-down.

Test [2] addresses T5, Prp22-AID-6FLAG (S. cerevisiae) (UniProt P24384).
T5 sequence: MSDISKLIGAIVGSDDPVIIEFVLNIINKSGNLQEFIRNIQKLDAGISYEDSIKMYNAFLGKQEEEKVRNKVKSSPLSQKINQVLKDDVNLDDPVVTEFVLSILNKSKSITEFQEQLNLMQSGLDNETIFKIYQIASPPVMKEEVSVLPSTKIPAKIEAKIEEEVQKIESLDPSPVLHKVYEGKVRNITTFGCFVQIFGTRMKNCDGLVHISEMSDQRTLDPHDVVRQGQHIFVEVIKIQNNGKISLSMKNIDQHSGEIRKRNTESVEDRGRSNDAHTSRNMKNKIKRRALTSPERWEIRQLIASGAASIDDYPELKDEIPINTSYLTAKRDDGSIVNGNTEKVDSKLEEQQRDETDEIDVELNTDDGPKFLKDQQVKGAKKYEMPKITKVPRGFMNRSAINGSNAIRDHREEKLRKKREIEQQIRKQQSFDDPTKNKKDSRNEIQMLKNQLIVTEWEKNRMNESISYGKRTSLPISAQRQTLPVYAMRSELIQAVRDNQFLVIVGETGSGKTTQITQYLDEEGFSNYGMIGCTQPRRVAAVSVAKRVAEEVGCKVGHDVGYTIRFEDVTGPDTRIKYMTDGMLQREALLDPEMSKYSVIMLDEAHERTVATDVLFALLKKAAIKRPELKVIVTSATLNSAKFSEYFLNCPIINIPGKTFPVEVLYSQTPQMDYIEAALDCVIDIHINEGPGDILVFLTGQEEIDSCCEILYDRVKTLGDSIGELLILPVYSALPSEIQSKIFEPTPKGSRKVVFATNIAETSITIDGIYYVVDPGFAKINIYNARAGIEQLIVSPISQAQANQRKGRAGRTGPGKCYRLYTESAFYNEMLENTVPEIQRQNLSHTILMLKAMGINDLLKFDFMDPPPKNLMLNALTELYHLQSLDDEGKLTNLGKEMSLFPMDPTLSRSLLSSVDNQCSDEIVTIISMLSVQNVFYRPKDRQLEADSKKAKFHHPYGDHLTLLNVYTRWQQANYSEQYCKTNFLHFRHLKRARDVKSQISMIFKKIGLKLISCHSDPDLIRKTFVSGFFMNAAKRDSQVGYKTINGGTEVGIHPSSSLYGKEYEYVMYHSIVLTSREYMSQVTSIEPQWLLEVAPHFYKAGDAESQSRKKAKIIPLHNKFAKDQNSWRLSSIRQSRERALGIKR
Description: co-IP.

For the next test, the target named is Snf2-Myc (S. cerevisiae) (UniProt P22082). Description: co-IP.
The target in a further test is T6, Sdc1 (S. cerevisiae) (UniProt Q03323).
T6 sequence: T4 sequence
Description: two-hybrid.

Another test addresses T7, Shg1 (S. cerevisiae) (UniProt P38337).
T7 sequence: T3 sequence
Description: two-hybrid.

In test [3] the target is T1, Spp1 (S. cerevisiae). The test can be described thus: two-hybrid. This is another data set of the same source.

On to “Mcm2 (791-867) (from UniProt P29469 791-867) (domain or fragment)”, for which the binding result with Spp1 (S. cerevisiae) [1] is on record as “binds”.

For “Mcm2 (soluble partner of the GST-Spp1 pull-down) (from UniProt P29469 1-868)”, the binding entry with GST-Spp1 (S. cerevisiae) was “binds weakly”.

B1: Spp1 (soluble partner of the GST-Mcm2 pull-down) (protein, UniProt Q03012 1-353)
chain: T1 sequence
As for B1, in the test with GST-Mcm2 (S. cerevisiae), the binding result is given as “binds weakly”.

B2: in vitro translated Nis1 (protein, UniProt P53939 1-407)
chain: METYETSIGTQSYPPTLFPPPLGTGGFTTSGYIHALVDSTSNSNSNSNTNSNTNSNTNSNSDTKIPIVQISDDSHITHDSFKPYMEYHDASHLRNRNISKADQVESTEVMEQFTQWSNYKMRSRSPTINAKPIRHTSQRRTDFTSKNELSKFSKNHNFIFHKGFLKRQHSIRREDRQAKVRSRFRSKKELTSVLNYIELEQMDIANVLASQPVNLHAIRNLTSRDPAVTPIPFLRSQMYATSSRPPYLRNRSISRKLPKSQPGSLPTTMPATATKTIKQNSTTPTTRSVYNKNVGRSNTSPSVLYHPKRRGKLNTKSHARKEQLLLELWREYLMLVITQRTQLRLTLLCSPGSASNESSVCSSNASDLDMSLLSTPSSLFQMAGETKSNPIIIPDSQDDSILSSDPF
In the case of B2, the binding entry was “no binding” in the test with GST-Shg1 (S. cerevisiae), “binds” with GST-Spp1 (S. cerevisiae) and “binds” with GST-Sdc1 (S. cerevisiae).

B3: Myc-Set1 (protein, UniProt P38827 1-1080)
chain: MSNYYRRAHASSGSYRQPQEQPQYSRSGHYQYSNGHSHQQYSSQYNQRRRYNHNDGTRRRYNDDRPHSSNNASTRQYYATNNSQSGPYVNKKSDISSRRGMSQSRYSNSNVHNTLASSSGSLPTESALLLQQRPPSVLRYNTDNLKSKFHYFDPIKGEFFNKDKMLSWKATDKEFSETGYYVVKELQDGQFKFKIKHRHPEIKASDPRNENGIMTSGKVATHRKCRNSLILLPRISYDRYSLGPPPSCEIVVYPAQDSTTTNIQDISIKNYFKKYGEISHFEAFNDPNSALPLHVYLIKYASSDGKINDAAKAAFSAVRKHESSGCFIMGFKFEVILNKHSILNNIISKFVEINVKKLQKLQENLKKAKEKEAENEKAKELQGKDITLPKEPKVDTLSHSSGSEKRIPYDLLGVVNNRPVLHVSKIFVAKHRFCVEDFKYKLRGYRCAKFIDHPTGIYIIFNDIAHAQTCSNAESGNLTIMSRSRRIPILIKFHLILPRFQNRTRFNKSSSSSNSTNVPIKYESKEEFIEATAKQILKDLEKTLHVDIKKRLIGPTVFDALDHANFPELLAKRELKEKEKRQQIASKIAEDELKRKEEAKRDFDLFGLYGGYAKSNKRNLKRHNSLALDHTSLKRKKLSNGIKPMAHLLNEETDSKETTPLNDEGITRVSKEHDEEDENMTSSSSEEEEEEAPDKKFKSESEPTTPESDHLHGIKPLVPDQNGSSDVLDASSMYKPTATEIPEPVYPPEEYDLKYSQTLSSMDLQNAIKDEEDMLILKQLLSTYTPTVTPETSAALEYKIWQSRRKVLEEEKASDWQIELNGTLFDSELQPGSSFKAEGFRKIADKLKINYLPHRRRVHQPLNTVNIHNERNEYTPELCQREESSNKEPSDSVPQEVSSSRDNRASNRRFQQDIEAQKAAIGTESELLSLNQLNKRKKPVMFARSAIHNWGLYALDSIAAKEMIIEYVGERIRQPVAEMREKRYLKNGIGSSYLFRVDENTVIDATKKGGIARFINHCCDPNCTAKIIKVGGRRRIVIYALRDIAASEELTYDYKFEREKDDEERLPCLCGAPNCKGFLN
Turning to B3, in test [2], the binding result was “binds”.

B4: Set1 (endogenous) (protein, UniProt P38827 1-1080)
chain: B3 chain
Take B4: the binding entry with Snf2-Myc (S. cerevisiae) was “binds”.

B5: C-terminus of Nis1 (360-407) (domain or fragment, UniProt P53939 360-407)
chain: VCSSNASDLDMSLLSTPSSLFQMAGETKSNPIIIPDSQDDSILSSDPF
Turning to B5, the binding result in the test with Sdc1 (S. cerevisiae), with Shg1 (S. cerevisiae) and with Spp1 (S. cerevisiae) [3] was “binds” throughout.
